The test relates to native GABAARs in cerebellar granule cells. Nature of the test: Whole-cell patch clamp of cerebellar granule cells in mouse brain slices, cumulative concentration-response. It counts as cell-based. The settings on record: read-out: EC50 for evoking GABAAR-mediated current; CGCs held at −70 mV, 10 μM DNQX, 0.3 μM TTX, room temperature, mean ± SEM, n = 7. In general terms: In patch-clamp work, channel activity is measured electrically.

Consider `NCCCC(=O)O` [GABA], for which the EC50 (commonly the concentration needed to bring the measured effect to its halfway point) worked out at 3.7 µM.

The record behind these values is PMC10752957, “GABAA receptors as plausible molecular targets and mediators for taurine and homotaurine actions” (Frontiers in Pharmacology, 2023).
